Experimental findings from paper PMC3549491, “Structural Basis of the Intracellular Sorting of the SNARE VAMP7 by the AP3 Adaptor Complex” (Developmental Cell, 2012) are described below.

Chains of the proteins cited; added tags and fusions are not shown. Lines headed by an entry give the natural chain unless they say otherwise; changes in a name come on top. Residues count along the entry.
UniProt P70280, residues 2-188: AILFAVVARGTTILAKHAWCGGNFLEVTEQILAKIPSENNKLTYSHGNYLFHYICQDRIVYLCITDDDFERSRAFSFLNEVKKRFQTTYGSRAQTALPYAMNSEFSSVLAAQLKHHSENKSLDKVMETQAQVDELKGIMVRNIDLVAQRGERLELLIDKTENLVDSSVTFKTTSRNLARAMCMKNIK
UniProt O70439: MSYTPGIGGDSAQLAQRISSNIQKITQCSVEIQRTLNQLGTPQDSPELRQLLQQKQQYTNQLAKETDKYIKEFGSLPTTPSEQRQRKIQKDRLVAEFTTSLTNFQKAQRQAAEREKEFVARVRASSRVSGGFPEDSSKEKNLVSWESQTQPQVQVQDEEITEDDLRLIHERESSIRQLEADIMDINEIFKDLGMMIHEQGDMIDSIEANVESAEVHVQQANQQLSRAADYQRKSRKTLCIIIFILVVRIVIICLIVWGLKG
UniProt O88983: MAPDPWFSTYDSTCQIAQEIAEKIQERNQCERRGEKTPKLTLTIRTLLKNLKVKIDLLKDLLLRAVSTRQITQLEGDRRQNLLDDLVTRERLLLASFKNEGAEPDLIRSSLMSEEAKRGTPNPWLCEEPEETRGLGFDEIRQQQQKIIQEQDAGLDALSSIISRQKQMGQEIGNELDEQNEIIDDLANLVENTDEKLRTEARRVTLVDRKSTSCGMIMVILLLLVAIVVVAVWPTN

The experiment deals with GST-VAMP7 cytoplasmic domain (UniProt P70280). The experiment is described as follows: pull-down + SEC; SNARE complex reconstitution: purified syntaxin7, syntaxin8, Vti1b and GSTVAMP7 mixed about 4:4:4:1, 16 hr, 4°C, 20 mM HEPES pH 7.4, 500 mM NaCl, 5 mM DTT; complexes isolated on glutathione-Sepharose, then Superdex S200; both purified.

No constants are given. Whether binding was seen depends on the method and setting. A result given as binding can be weak or reduced; the word gives no strength.

Syntaxin7 (from UniProt O70439): the binding entry is reported as “binds”. As for Syntaxin8 (from UniProt O88983), the binding result was “binds”.
